We go through two compounds from patent US11944090B2, “Compositions and methods for attracting fire ants” (The United States of America, as represented by The …, priority 2021, dated 2024).

This series is described as follows: GC-MS quantification of oxo fatty acids in individual male alates. Also noted: species or system S. invicta. Particulars: reproductive system extract, mean±SE, n=12. As for the experimental part:
Sample preparation and chemical analysis: The reproductive system was pulled out from male […] using forceps and placed in a glass insert, crushed using a metal wire, and extracted with 50 μL dichloromethane for at least 2 hours. No sample clean-up was needed. One microliter extraction was injected into the GC-MS. Chemical identification was confirmed by comparing the retention times and mass spectra of samples to those of synthetic standards. For quantification, 4,6-dioxoheptanoic acid was used as an internal standard. Each reproductive system was extracted using 50 μl 0.044 mg/ml 4,6-dioxoheptanoic acid dichloromethane solution. Standard curves were built using a series of 10-oxo-dodecanoic acid and 11-oxo-doedecanoic acid solutions that were prepared using 0.044 mg/ml 4,6-dioxoheptanoic acid dichloromethane solution. The ratios of peak areas of 10-oxo- and 11-oxo-dodecanoic acids to those of the 4,6-dioxoheptanoic acid were used to develop standard curves. Twelve male […], each from a different colony, were used for quantification. Gas Chromatography-Mass Spectrometry (GC-MS): An Agilent 7890A gas chromatograph coupled to an Agilent 5975 mass selective detector (Santa Clara, CA) was used. A DB-5 capillary column (30 m×0.25 mm i.d., 0.25 μm film thickness) was used. […]

Turning to `CC(=O)CCCCCCCCCC(=O)O` [11-oxo-dodecanoic acid], the “concentration of fatty acid per ant” value was found to be 10.90±4.18 ng/ant. With `CCC(=O)CCCCCCCCC(=O)O` [10-oxo-dodecanoic acid] the figure was 11.09±4.26 ng/ant.
